# Measured values taken from PubChem BioAssay AID2685 (National Center for Advancing Translational Sciences (NCATS), 2010).
# The list shows a part of the results. The main result of the screen is listed elsewhere. These columns were measured beside it and carry no call. Most of these compounds were active or inconclusive in the main read-out, so they are no random draw. Potencies come from curve fits of mixed quality, noted in brackets.
# Experiment: qHTS Assay for Lipid Storage Modulators in Drosophila S3 Cells;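 as to cell number change: cells counted by Cell Tracker Red CMTPX staining in the red channel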
# Conditions: BODIPY lipid droplet fluorescence, 18-24 h; for cell number change: measured here: cell count max response, cells fed with added oleic acid
# Outline: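 Drosophila S3 cells loaded with oleic acid (400 uM, as added) and compounds at several concentrations; lipid droplets imaged by 488-nm laser-scanning cytometry, 500–530 nm intensity and object ratio to cell channel. Percent activity normalized to 20 uM Triacsin C.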
# [1] = measured here: cell number channel AC50, cells fed with added oleic acid
# [2] = measured here: lipid fluorescence (Fed channel) AC50, cells fed with added oleic acid
Compound,cell number change [%],AC50 [1],AC50 [2]
Cc1[nH]c2ccccc2c1C(=O)COC(=O)Cn1c(C)nc2ccccc21,-0.804,–,–
O=C1CC(c2cccc(Cl)c2)CC(O)=C1C=Nc1cccc(Cl)c1 (stereo not given),57.1,"18400 nM [rising, single point]",–
CC1CN(c2ccc(Cl)cc2)c2nc3c(c(=O)[nH]c(=O)n3C)n2C1 (stereo not given),45.8,–,"580 nM [falling, single point]"
Cc1ccc(C)c(SCC(=O)NNC(=O)c2ccccc2)c1,14,–,"580 nM [rising, single point]"
O=C(NC1CCCCC1)c1ccc(N2CCCC2=O)cc1,-7.62,–,–
CCC(=O)NNc1cccc(Cl)n1,87.4,–,–
CSc1nnc(-c2sccc2OCc2ccc(C)cc2)n1C,173,–,–
COCCCNC(=O)CSc1nc2ccccc2c(=O)n1CCc1ccc(S(N)(=O)=O)cc1,-15.2,–,"16400 nM [falling, single point]"
COc1ccc(CNC(=O)c2cc(-c3ccncc3)nc3c(C)cc(C)cc23)cc1OC,-11.4,–,–
CCCCN(C(=O)C1CSC2(C)CCC(=O)N12)c1c(N)n(Cc2ccccc2)c(=O)[nH]c1=O (stereo not given),100,"16400 nM [rising, single point]",–
CCn1c(CNC(=O)c2ccco2)nnc1SCC(=O)Nc1cc(C)c(C)cc1Br,-17.1,"2310 nM [rising, partial curve]","32600 nM [falling, single point]"
Cc1cc2c(Nc3ccccc3)ncnc2s1,23.5,–,"2590 nM [rising, single point]"
Clc1ncnc2scc(-c3ccc(Br)cc3)c12,-11.2,–,–
O=C(NC(=S)Nc1ccc(S(=O)(=O)N2CCCCCC2)cc1)c1cccs1,11,–,"20600 nM [rising, single point]"
CCNc1nc(CN2CCOCC2)nc2sc3c(c12)CCC3,21.4,"1460 nM [rising, partial curve, poor fit]",–
Fc1ccc(C2=CC(c3ccc(Br)o3)n3ncnc3N2)cc1 (stereo not given),10.4,–,"1160 nM [rising, partial curve, poor fit]"
O=C(c1sc2ccccc2c1Cl)N(Cc1ccccc1)C1CCS(=O)(=O)C1 (stereo not given),-15.5,–,–
CC(Oc1ccccc1)c1ccnn1S(C)(=O)=O (stereo not given),-23.5,"2590 nM [falling, single point]","23100 nM [falling, partial curve]"
S=C(NCCc1ccccc1)Nc1nccs1,-18.7,–,"580 nM [rising, partial curve, poor fit]"
CC(=O)N1CCN(c2ccc(OC[C@H]3CO[C@](Cn4ccnc4)(c4ccc(Cl)cc4Cl)O3)cc2)CC1,-54,–,"32600 nM [falling, partial curve, poor fit]"

# 3 entries out of the list, arranged by length of the SMILES, low to high:
Compound,cell number change [%],AC50 [1],AC50 [2]
Fc1ccc(C2=CC(c3ccc(Br)o3)n3ncnc3N2)cc1 (stereo not given),10.4,–,"1160 nM [rising, partial curve, poor fit]"
O=C1CC(c2cccc(Cl)c2)CC(O)=C1C=Nc1cccc(Cl)c1 (stereo not given),57.1,"18400 nM [rising, single point]",–
Cc1[nH]c2ccccc2c1C(=O)COC(=O)Cn1c(C)nc2ccccc21,-0.804,–,–
